Measurements published in patent publication US20200332015A1.
Results are given in words; binding and its absence hold for the method and conditions named. Some results given as binding are weak or reduced against the parent protein; the word gives no strength.

Sequences of proteins named here, by UniProt entry; tags and fusion partners are left off. A change or cut given only in a name is not applied to a line headed by its entry.
UniProt Q07011: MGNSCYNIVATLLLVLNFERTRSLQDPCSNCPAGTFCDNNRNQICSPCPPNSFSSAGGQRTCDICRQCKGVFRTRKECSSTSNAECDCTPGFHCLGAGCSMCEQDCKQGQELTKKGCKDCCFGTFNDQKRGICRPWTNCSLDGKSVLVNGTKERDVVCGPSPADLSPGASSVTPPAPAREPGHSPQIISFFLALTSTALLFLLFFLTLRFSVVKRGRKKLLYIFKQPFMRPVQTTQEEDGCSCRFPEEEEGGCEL

Assays:
[1] = target: human CD137 (antigen of the competition ELISA of Example 7 and of the epitope binning of Example 8) (human) (UniProt Q07011); assay: SPR epitope binning, PRO885 immobilized
[2] = target: human CD137 (antigen of the competition ELISA of Example 7 and of the epitope binning of Example 8) (human) (UniProt Q07011); assay: SPR epitope binning (MASS-1), CD137 captured by PRO951
[3] = target: human CD137 (antigen of the competition ELISA of Example 7 and of the epitope binning of Example 8) (human) (UniProt Q07011); assay: SPR epitope binning, CD137 captured by immobilized PRO951
[4] = target: human CD137 (antigen of the competition ELISA of Example 7 and of the epitope binning of Example 8) (human) (UniProt Q07011); assay: SPR (MASS-1): PRO885 immobilized on the chip, CD137 (90 nM) injected and captured
[5] = target: human CD137 (antigen of the competition ELISA of Example 7 and of the epitope binning of Example 8) (human) (UniProt Q07011); assay: SPR epitope binning, sandwich setup: CD137 captured on immobilized PRO951, PRO885 injected as second binder (22.5 nM)
[6] = target: human CD137 (antigen of the competition ELISA of Example 7 and of the epitope binning of Example 8) (human) (UniProt Q07011); assay: SPR epitope binning, PRO951 immobilized
[7] = target: human CD137 (antigen of the competition ELISA of Example 7 and of the epitope binning of Example 8) (human) (UniProt Q07011); assay: SPR epitope binning (MASS-1), 22.5 nM second antibody
[8] = target: human CD137 (antigen of the competition ELISA of Example 7 and of the epitope binning of Example 8) (human) (UniProt Q07011); assay: SPR epitope binning, CD137 captured by immobilized PRO885
[9] = target: human CD137 (antigen of the competition ELISA of Example 7 and of the epitope binning of Example 8) (human) (UniProt Q07011); assay: SPR (MASS-1): PRO951 immobilized on the chip, CD137 (90 nM) injected and captured
[10] = target: human CD137 (antigen of the competition ELISA of Example 7 and of the epitope binning of Example 8) (human) (UniProt Q07011); assay: SPR epitope binning, sandwich setup: CD137 captured on immobilized PRO885, PRO951 injected as second binder (22.5 nM)

Measured: binding

B1: PRO885 (38-02-A04 sc01 scDb-i/33-03-G02 sc01 scDb-o) (bispecific antibody)
chain: DIQMTQSPSSLSASVGDRVTITCQASQSINDYLAWYQQKPGKAPKLLIYKASTLASGVPSRFSGSGSGTDFTLTISSLQPEDFATYYCQQGYIITDIDNVFGTGTKVTVLGGGGGSQVQLQESGPGLVKPSETLSLTCKVSGFSFSNSYWICWIRQPPGKGLEWIGCTFVGSSDSTYYANWAKGRVTISVDSSKNQFSLKLSSVTAADTAVYYCARHPSDAVYGYANNLWGQGTLVTVSSGGGGSGGGGSGGGGSGGGGSIQMTQSPSSLSASVGDRVTITCQASQSINNVLAWYQQKPGKAPKLLIYRASTLASGVPSRFSGSGSGTDFTLTISSLQPEDFATYYCQSSYGNYGDFGTGTKVTVLGGGGGSQVQLQESGPGLVKPSETLSLTCKVSGFSFSSGYDMCWIRQPPGKGLEWIGCVVAGSVDITYYASWAKGRVTISVDSSKNQFSLKLSSVTAADTAVYYCARKDAYSDAFNLWGQGTLVTVSS
binds: [1] | [2] | [3] | [4] | [5]

B2: PRO951 (38-27-C05 sc02 scDb-i/33-03-G02 sc01 scDb-o) (bispecific antibody)
chain: DIQMTQSPSSLSASVGDRVTITCQASQSINDYLAWYQQKPGKAPKLLIYKASTLASGVPSRFSGSGSGTDFTLTISSLQPEDFATYYCQQGYIITDIDNVFGTGTKVTVLGGGGGSEVQLVESGGGLVQPGGSLRLSCAASGFSFNNDYDMCWVRQAPGKGLEWIGCIDTGDGSTYYASWAKGRFTISRDNSKNTVYLQMNSLRAEDTAVYYCAREAASSSGYGMGYFDLWGQGTLVTVSSGGGGSGGGGSGGGGSGGGGSIQMTQSPSSLSASVGDRVTITCQSSQSVYDNNWLAWYQQKPGKAPKLLIYRASNLASGVPSRFSGSGSGTDFTLTISSLQPEDFATYYCQGTYLSSNWYWAFGTGTKVTVLGGGGGSQVQLQESGPGLVKPSETLSLTCKVSGFSFSSGYDMCWIRQPPGKGLEWIGCVVAGSVDITYYASWAKGRVTISVDSSKNQFSLKLSSVTAADTAVYYCARKDAYSDAFNLWGQGTLVTVSS
binds: [6] | [7] | [8] | [9] | [10]
